Results are given in words; binding and its absence hold for the method and conditions named. Binding seen in cells or lysates may run through a third protein. Here binding means that the protein was enriched with, or labelled near, the bait; the list need not be complete.
B1: SAWADEE HOMEODOMAIN HOMOLOGUE 1 (SHH1) (protein, UniProt Q9XI47 1-258)
chain: MAASDDSSHYFTEFTLSEIVDMENLYKELGDQSLHKDFCQTVASTFSCSVNRNGKSSITWKQVQIWFQEKLKHQSQPKSKTLPSPPLQIHDLSNPSSYASNASNATFVGNSTFVQTRKGKASDLADLAFEAKSARDYAWYDVSSFLTYRVLRTGELEVRVRFSGFDNRHDEWVNVKTSVRERSIPVEPSECGRVNVGDLLLCFQEREDQALYCDGHVLNIKRGIHDHARCNCVFLVRYELDNTEESLGLERICRRPEE

Sequences of proteins named here, by UniProt entry; tags and fusion partners are left off.
UniProt Q9LQ02: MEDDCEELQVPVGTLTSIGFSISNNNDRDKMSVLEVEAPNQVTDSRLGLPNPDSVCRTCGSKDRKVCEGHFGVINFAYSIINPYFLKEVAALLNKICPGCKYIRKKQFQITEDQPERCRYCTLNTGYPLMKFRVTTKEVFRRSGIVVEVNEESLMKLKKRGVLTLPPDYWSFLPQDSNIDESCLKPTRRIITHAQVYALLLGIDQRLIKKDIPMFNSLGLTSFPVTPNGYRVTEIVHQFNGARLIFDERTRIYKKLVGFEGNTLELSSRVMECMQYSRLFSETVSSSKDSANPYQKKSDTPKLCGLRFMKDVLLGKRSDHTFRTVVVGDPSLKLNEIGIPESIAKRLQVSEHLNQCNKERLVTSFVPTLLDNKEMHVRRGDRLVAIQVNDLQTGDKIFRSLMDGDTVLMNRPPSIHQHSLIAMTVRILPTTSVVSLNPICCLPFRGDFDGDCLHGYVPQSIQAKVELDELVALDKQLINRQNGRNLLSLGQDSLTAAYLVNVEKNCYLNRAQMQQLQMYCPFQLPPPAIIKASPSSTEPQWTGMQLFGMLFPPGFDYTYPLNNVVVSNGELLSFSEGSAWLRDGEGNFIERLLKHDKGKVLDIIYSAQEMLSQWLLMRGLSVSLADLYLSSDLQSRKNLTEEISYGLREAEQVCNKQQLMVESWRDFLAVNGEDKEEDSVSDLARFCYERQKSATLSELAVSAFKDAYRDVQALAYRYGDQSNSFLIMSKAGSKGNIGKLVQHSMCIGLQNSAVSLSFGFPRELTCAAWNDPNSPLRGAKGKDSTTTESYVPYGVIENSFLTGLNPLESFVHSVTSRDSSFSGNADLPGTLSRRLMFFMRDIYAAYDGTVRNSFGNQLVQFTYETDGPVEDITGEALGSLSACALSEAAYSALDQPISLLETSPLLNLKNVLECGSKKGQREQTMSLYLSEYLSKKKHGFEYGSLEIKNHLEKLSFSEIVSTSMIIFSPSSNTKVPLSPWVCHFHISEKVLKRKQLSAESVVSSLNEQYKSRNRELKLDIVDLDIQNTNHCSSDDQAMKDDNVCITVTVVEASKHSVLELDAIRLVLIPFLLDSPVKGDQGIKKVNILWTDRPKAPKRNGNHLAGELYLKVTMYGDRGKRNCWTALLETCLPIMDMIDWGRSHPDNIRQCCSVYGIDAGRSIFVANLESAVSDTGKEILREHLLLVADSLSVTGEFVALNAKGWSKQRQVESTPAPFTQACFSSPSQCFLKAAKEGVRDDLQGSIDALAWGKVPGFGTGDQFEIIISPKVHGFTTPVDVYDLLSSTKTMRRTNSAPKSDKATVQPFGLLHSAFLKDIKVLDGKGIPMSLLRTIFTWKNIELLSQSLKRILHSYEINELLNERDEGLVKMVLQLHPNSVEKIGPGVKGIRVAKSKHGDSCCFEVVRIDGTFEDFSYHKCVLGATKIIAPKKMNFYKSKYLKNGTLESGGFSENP
UniProt O82504: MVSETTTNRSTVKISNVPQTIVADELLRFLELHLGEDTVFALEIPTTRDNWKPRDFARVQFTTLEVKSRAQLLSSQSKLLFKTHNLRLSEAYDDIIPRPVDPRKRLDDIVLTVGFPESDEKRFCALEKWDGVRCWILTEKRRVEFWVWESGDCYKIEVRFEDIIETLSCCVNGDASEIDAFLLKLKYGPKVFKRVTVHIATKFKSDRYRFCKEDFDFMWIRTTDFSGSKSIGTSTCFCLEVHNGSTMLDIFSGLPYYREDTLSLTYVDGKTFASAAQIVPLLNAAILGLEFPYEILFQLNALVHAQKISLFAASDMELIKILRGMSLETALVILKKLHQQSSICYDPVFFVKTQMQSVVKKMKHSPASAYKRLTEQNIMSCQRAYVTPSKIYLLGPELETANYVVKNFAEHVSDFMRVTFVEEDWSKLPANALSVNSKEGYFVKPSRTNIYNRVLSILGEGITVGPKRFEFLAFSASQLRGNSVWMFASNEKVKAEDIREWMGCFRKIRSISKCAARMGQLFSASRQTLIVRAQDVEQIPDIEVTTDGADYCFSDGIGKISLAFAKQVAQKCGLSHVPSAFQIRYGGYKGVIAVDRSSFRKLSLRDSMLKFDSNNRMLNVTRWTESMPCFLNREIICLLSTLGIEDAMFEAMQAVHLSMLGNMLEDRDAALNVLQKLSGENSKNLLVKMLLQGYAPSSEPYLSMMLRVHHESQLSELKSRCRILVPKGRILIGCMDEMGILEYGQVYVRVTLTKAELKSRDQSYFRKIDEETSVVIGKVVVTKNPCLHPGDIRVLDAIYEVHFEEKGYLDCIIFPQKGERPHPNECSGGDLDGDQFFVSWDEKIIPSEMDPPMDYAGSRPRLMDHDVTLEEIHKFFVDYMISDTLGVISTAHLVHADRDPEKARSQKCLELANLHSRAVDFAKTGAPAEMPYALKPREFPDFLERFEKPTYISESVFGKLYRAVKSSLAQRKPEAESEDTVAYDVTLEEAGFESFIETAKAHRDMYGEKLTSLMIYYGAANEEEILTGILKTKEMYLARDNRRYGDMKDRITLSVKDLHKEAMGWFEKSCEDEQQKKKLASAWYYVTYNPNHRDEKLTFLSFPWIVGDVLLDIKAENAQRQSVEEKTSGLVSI

Columns and labels:
[1] = biological target: nuclear RNA polymerase D1 (NRPD1)-3xFLAG, largest subunit of RNA polymerase IV (Arabidopsis thaliana) (UniProt Q9LQ02); experiment: affinity purification with mass spectrometry; chromatin immunoprecipitation coupled with mass spectrometry (ChIP-MS) from inflorescences; NRPD1-3xFLAG on anti-FLAG M2 magnetic beads or NRPD1-3xHA by HA antibody with Dynabeads Protein A and G; nontransgenic Col-0 as control; two independent replicates
[2] = biological target: nuclear RNA polymerase D1 (NRPD1)-HA, largest subunit of RNA polymerase IV (Arabidopsis thaliana) (UniProt Q9LQ02); experiment: as above

Molecule | binding [1] | binding [2]
RDR2 (from UniProt O82504 1-1133) | binds | binds
B1 | binds | binds

— publication PMC9699677
